Literature values, collected in patent US20040006070A1, “Intraspinal continuous infusion of midazolam hydrochloride for the treatment of pain” (priority 2002, published 2004).

Details: in vivo; cited from earlier work

For `CN1CC[C@]23c4c5ccc(O)c4O[C@H]2[C@@H](O)C=C[C@H]3[C@H]1C5.O=S(=O)(O)O` [morphine, morphine sulfate], which “potency of intrathecal infusion relative to intravenous infusion” value is on record?
Its value is “approximately 20 times”.
